Test results from PubChem BioAssay AID602254 (Broad Institute, 2012).
The whole screen tested about 1,000 compounds, of which fewer than 10 were called active.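 Rule for the calls: active = fitted half-maximal concentration no higher than twice the top valid tested dose, with signal falling; inconclusive = flat curve with 30 to 70% inhibition, or poor fit; inactive = the rest.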 This is one part of the list. Results with a measured potency or affinity are listed apart.

target: Golgi-associated PDZ and coiled-coil motif-containing protein (Homo sapiens) (UniProt Q9HD26); test: blockers of CAL PDZ–TMR peptide complex – biochemical, fluorescence polarization, untagged CAL PDZ, cherry-pick, set 2, dose response (AID 602254); conditions: Purified CAL PDZ; at 60 µM (top of the series);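 note: 0% = DMSO neutral control and -100% = unlabeled peptide PRC23 positive control; more negative means stronger blocking of peptide binding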

Activity change, negative = inhibition, inactive:
COc1ccc(Br)cc1CNc1ccc2[nH]c(=O)[nH]c2c1 -3.88%, Cc1cccc(OCCCn2c(CO)nc3ccccc32)c1 1.72%, O=C(Nc1ccccc1F)c1ccc(CN2CCc3ccccc3C2)cc1 -0.957%, Cc1cc(=O)oc2cc(OCC(=O)Nc3nnc(C4CC4)s3)ccc12 3.11%, COc1ccc(/C=C/CN2CCCC(CO)(Cc3cccc(Cl)c3)C2)cc1 (centres undefined) 2.42%, Cc1ccc(CSc2ccc(S(=O)(=O)N3CCCC3)cn2)cc1 -3.58%, O=C(NNC(=O)c1ccc[nH]1)Nc1cccc(C(F)(F)F)c1 -0.191%, Cc1cc(OCC(=O)NCc2ccccn2)c2c(C)cc(=O)oc2c1 -0.153%, COc1ccc(NC2CCCN(C(=O)c3csc(C(C)C)n3)C2)cc1 (centres undefined) -1.33%, O=C1OC(CO)CN1Cc1ccccc1 (centres undefined) -3.64%, CCc1noc(C)c1C(=O)N1CCN(S(=O)(=O)c2cccs2)CC1 -1.19%, Cc1ccc(S(=O)(=O)NCCC(=O)NC(C)CCc2ccccc2)cc1 (centres undefined) 1.68%, Cc1cccc(N(CC(=O)NCc2ccc3c(c2)OCO3)C(=O)CCC(=O)Nc2ccccn2)c1C 6.57%, COc1ccccc1C(=O)Nc1ccc2c(c1)nc(CN1CCCCC1)n2C 3.14%, CCCCCCC(=O)Oc1cccc(N2C(=O)C3CCCCC3C2=O)c1 (centres undefined) 2.95%, COc1ccc(C(C)NC(=O)c2ccncc2)cc1OC (centres undefined) 3.67%, CCOC(=O)c1cnc2nc(C(F)(F)F)[nH]n2c1=O 2.92%, NC(=O)CC1C(=O)N(c2ccc(Cl)cc2)C(=S)N1NC(=O)c1cccc(F)c1 (centres undefined) -2.21%, N#CCc1ccc(OC(=O)Nc2ccccc2)cc1 2.23%, CN(C)CCCCOc1ccc(Br)cc1Cl 1.37%, COc1cccc(-c2nn(-c3ccc(C)cc3)cc2C(=O)N(C)CC(=O)Nc2cccc(F)c2)c1 0.312%, O=C(COC(=O)Cc1c(F)cccc1Cl)NC(=O)c1ccccc1 -4.75%, COC(=O)c1ccc(NC(=O)CN2C(=O)NC3(CCC(C)CC3)C2=O)cc1 (centres undefined) 0.218%, c1ccc(CN2CCCC3(CCCN(Cc4nc(COc5ccccc5)no4)C3)C2)cc1 (centres undefined) -0.026%, CCN(Cc1cnn(C)c1)C(=O)C1CCC(=O)N(CCc2ccc(OC)cc2)C1 (centres undefined) 0.165%, Cc1ccc(C)c(NC(=S)NCCN(C2CCCCC2)C2CCCC2)c1 1.16%, Cc1onc(-c2ccc(Cl)cc2Cl)c1-c1csc(N/N=C/c2ccccc2)n1 -10.3%, Cc1ccc(NC(=S)NC2CCN(Cc3ccccc3)CC2)cc1C -0.836%, O=C(Nc1ccc(F)cc1)c1cc(-c2ccccc2)no1 -2.38%, Cc1nn(-c2ccccc2)c(C)c1NC(=O)COC(=O)c1ccc(Cl)c(S(N)(=O)=O)c1 3.11%, CC(=O)N1c2ccc(S(=O)(=O)N3CCC(C(=O)Nc4cc(C)ccn4)CC3)cc2CC1C (centres undefined) 2.78%, O=C(CN1CCN(CC(=O)Nc2cccc(F)c2)CC1)Nc1ccc(-c2ccccc2)cc1 -1.28%, COc1ccc(NC(C)=O)cc1NC(=O)C1CCCN1C(=O)c1cccs1 (centres undefined) 0.79%, Cc1ccc(S(=O)(=O)N(C)CC(=O)NCCCn2nc(C)cc2C)cc1 -1.11%, CC(=O)N1c2ccc(S(=O)(=O)N3CCC(C(=O)NC4CCCCC4)CC3)cc2CC1C (centres undefined) -0.953%, NC(=O)c1c(NC(=O)c2ccccc2F)sc2c1CCCC2 0.485%, CSc1cccc(NC(=S)NN(C)C)c1 6.39%, Cn1c(C(=O)N2CCN(c3ccccc3)CC2)cc2cc(Cl)ccc21 -1.02%, CC(=O)c1cccc(NC(=O)c2cccc3ccccc23)c1 5.97%, CN(C)c1ccc(/C=N\Nc2nc(-c3ccccc3)cc(=O)[nH]2)cc1 -6.31%, CN(CC(=O)Nc1cc(Cl)ccc1C#N)C1CCS(=O)(=O)C1 (centres undefined) 2.32%, CN(CC(=O)Nc1ccccc1Cl)C(=O)CN1C(=O)NC(c2ccccc2)(c2ccccc2)C1=O 1.72%, CC1CN(C(=O)c2cccc(S(=O)(=O)Nc3cc(Cl)ccc3Cl)c2)CC(C)O1 (centres undefined) -3.54%, O=C(COC(=O)c1ccc2c(c1)OCO2)NCc1ccc(Cl)cc1 0.258%, CN(Cc1ccccc1)S(=O)(=O)c1ccc(N2CCOCC2)nc1 -1.75%, O=C(c1ccc(S(=O)(=O)N2CCCCCC2)cc1)N1CCN(c2ccccc2)CC1 -2.65%, COc1ccc(OCC(O)CNC(=O)c2ccc(Br)cc2)cc1 (centres undefined) 0.664%, COc1ccc(CN2CCNC(=O)C2CC(=O)N(C)CCC2CCOCC2)cc1OC (centres undefined) -1.69%, CCOC(=O)c1c(NC(=O)CN2CCC(C)CC2)sc(C)c1C 2.58%, COc1ccc(NC(=O)Oc2cc(C)ccc2C(C)C)cc1 -0.959%, Cc1noc(NS(=O)(=O)c2ccc(NC(=O)c3ccc(N(C)C)cc3)cc2)c1C -0.732%, Cc1nnsc1C(=O)NC1CCCc2c1cnn2-c1ccc(C(C)(C)C)cc1 (centres undefined) 0.328%, O=C(NCc1ccccc1)c1ncn[nH]1 -7.09%, Cc1ccc(S(=O)(=O)N2CCOCC2)cc1C(=O)N1CCN(c2ncccn2)CC1 0.348%, O=C(NCc1cccs1)c1ccncc1 1.91%, COc1cc(/C=N/N2C(=O)CSC2=S)cc(Br)c1O 89.3%, CN(C(=O)c1cccc(C(F)(F)F)c1)C1CCCc2ccccc21 (centres undefined) -1.53%, Cc1ccc(S(=O)(=O)N(C)C)cc1NC(=S)N1CCc2ccccc21 0.484%, CCOC(=O)N1CCN(C(=O)CNCc2cccs2)CC1 -0.231%, Cc1ccc(C(C)C)cc1OCCn1cncn1 -1.32%, COc1ccccc1C(=O)Oc1ccccc1C(=O)Nc1ccccc1 -11.9%, CC1CCC(C(C)C)C(OCC(O)CNC(C)(C)C)C1 (centres undefined) -1.66%, O=C(NCc1cccc(Cl)c1)C1CCC(=O)N(CCCN2CCCC2=O)C1 (centres undefined) 0.114%, N#Cc1ccc(NC(=O)NN2CCCCCC2)cc1 2.36%, CCCCN1C[C@H](COC(=O)CCC)Oc2cccc(F)c2S1(=O)=O -0.292%, CCOc1ccc2cc(S(=O)(=O)N3CCCCC3)ccc2c1 -3.02%, COC(=O)C(CC(=O)c1ccc(C)cc1)n1nc(C)cc1C (centres undefined) 1.03%, CCN(CC)S(=O)(=O)c1ccc(N2CC(C(=O)NCCC3=CCCCC3)CC2=O)cc1 (centres undefined) -5.04%, O=C(c1ccccc1)c1ccccc1NC(=O)C1CCCN1Cc1ccccc1 (centres undefined) -3.61%, COc1cccc(NC(=O)c2ccc3nsnc3c2)c1 1.47%, CC(C)NC(=O)COc1coc(CN2CCN(c3ccccc3F)CC2)cc1=O -3%, Cc1ccsc1CN1CCC(C(=O)NCc2ccccc2Cl)CC1 0.835%, CCCCN1C[C@H](CO)Oc2cccc(F)c2S1(=O)=O 0.778%, Cc1cc(O)c(Sc2ccc(Cl)cc2)c(=O)[nH]1 -0.176%, CC(C)n1cc(/C=N/Nc2ccc(C(=O)O)cc2)c2ccccc21 -1.14%, O=S(=O)(NCCc1ccccc1)c1ccc(-n2cnnn2)cc1 0.275%, COc1ccc(OC)c(NC(=O)NNC(=O)CCCOc2ccc(Cl)cc2C)c1 0.743%, COc1ccccc1CNC(=O)C1CCN(S(=O)(=O)c2ccc3c(c2)OCCO3)CC1 0.61%, COC(=O)c1cc2ccsc2n1Cc1cccc(F)c1 1.78%, CCOC(=O)CCn1c(=S)n(CCC(=O)OCC)c2ccccc21 0.593%, CC(=O)c1cccc(NC(=O)C(C)OC(=O)CCn2c(C)csc2=O)c1 (centres undefined) -0.058%, CCC(C)c1ccccc1NC(=O)COC(=O)CCc1cc(OC)c(OC)c(OC)c1 (centres undefined) 1.57%, O=C(COC(=O)c1ccc(NC(=O)C2CC=CCC2C(=O)O)cc1)c1ccccc1 (centres undefined) 4.39%, COc1cccc(NC(=O)CN(C)CC(=O)Nc2ccc(Br)cc2)c1 1.43%, COc1ccc(C(CNC(=O)COc2c(C)cc(C)cc2C)N2CCOCC2)cc1 (centres undefined) 0.142%, CCNC(=S)NNC(=O)c1ccncc1 -1.57%, O=C(Nc1ccc(S(=O)(=O)N2CCCC2)cc1)c1ccc(OCC2CCCO2)cc1 (centres undefined) 3.08%, CCc1ccc(N2C(=O)CC(N3CCN(Cc4ccc5c(c4)OCO5)CC3)C2=O)cc1 (centres undefined) -0.604%, O=C(COc1ccc(-n2cnnn2)cc1)NC(=O)NCc1ccccc1 0.033%, COc1ccccc1CNC(=O)COC(=O)CC1CC2CCC1C2 (centres undefined) 5.21%, CC(C)(C)c1ccc(C(=O)NNc2ncccc2-n2cccc2)cc1 -0.412%, CC(=O)c1ccc(OCc2cc(C(=O)NCCc3ccc(Cl)cc3)no2)cc1 -0.074%, COc1cccc(/C=C2\SC(=S)N(CCC(=O)NCCc3ccc(O)cc3)C2=O)c1 0.355%, O=S1(=O)c2c(F)cccc2OC(COCc2ccccc2)CN1C1CCCC1 (centres undefined) 9.91%
